Some of the results follow.
What was measured:
Assay in all cases: NMR binding call after quantification (hit when 2 of 3 NMR criteria are met) (binary (1 = binding, 0 = not binding)); higher = binding
Conditions in all cases: RNA concentration 10 µM; fragment concentration 200 µM; 293 K
SARS-CoV-2 3'-UTR RNA = test system: SARS-CoV-2 3'-UTR RNA
SARS-CoV-2 3_SL1 RNA = test system: SARS-CoV-2 3_SL1 RNA
SARS-CoV-2 3_SL1+2 RNA = test system: SARS-CoV-2 3_SL1+2 RNA
SARS-CoV-2 3_SL2 RNA = test system: SARS-CoV-2 3_SL2 RNA
SARS-CoV-2 3_SL3base RNA = test system: SARS-CoV-2 3_SL3base RNA
SARS-CoV-2 3_s2m RNA = test system: SARS-CoV-2 3_s2m RNA

Measured: NMR binding call

CC1CCN(Cc2c[nH]c3ccccc23)CC1
0: all assays above

O=C(NCC1CCCO1)N1CCOCC1 (stereo unspecified)
0: all assays above

Oc1ccc(CN2CCOCC2)c2cccnc12
0: all assays above

Cn1nccc1C(=O)NCc1cccs1
not listed: SARS-CoV-2 3_SL3base RNA
0: all other assays above

c1csc(-c2nc(N3CCCCC3)no2)c1
not listed: SARS-CoV-2 3_SL3base RNA
0: all other assays above

Cc1[nH]cnc1CN1CCc2ccccc2C1
0: all assays above

COC(=O)c1ccc(NC(=O)C2CCCC2)cc1
not listed: SARS-CoV-2 3_SL2 RNA
0: all other assays above

CCNCc1cn(C)nn1
0: all assays above

COc1ccc(CN2CCOCC2)cc1OC
0: all assays above

Cc1cccc(C(=O)N(C)C)c1C
0: all assays above

CNC1CCCN(c2ccccc2)C1=O (stereo unspecified)
0: all assays above

CN1CCN(C(=O)Nc2ccccc2)CC1
0: all assays above

CC(=O)Nc1cc(C(N)=O)cc(C(N)=O)c1
not listed: SARS-CoV-2 3_SL3base RNA
0: all other assays above

CC(N)c1cn(-c2ccccc2)nn1.Cl (stereo unspecified)
not listed: SARS-CoV-2 3_SL3base RNA
0: all other assays above

CNc1ccccc1S(C)(=O)=O
not listed: SARS-CoV-2 3_SL2 RNA
0: all other assays above

CCOC(=O)Nc1sccc1C(N)=O
0: all assays above

CC(=O)NCc1ncc[nH]1
not listed: SARS-CoV-2 3_SL3base RNA
0: all other assays above

CCn1cc(CNC(=O)c2cccnc2)cn1
not listed: SARS-CoV-2 3_SL3base RNA
0: all other assays above

CC(=O)N1CCN(CCCc2ccccc2)CC1
0: all assays above

From the supplement of paper PMC8426693
